PubChem BioAssay AID504793, Drosophila RNAi Screening Center – 2011
The screen tested about 23,000 reagents; this is a random part of those that have a named target and a result. Of all reagents, 62 (0.27%) were called active. 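Calls come from follow-up tests whose scores are not deposited, so confirmed genes may have low counts here; counts are not normalised per plate.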 Raw values are not corrected between plates. The numbers tell different reagents against one gene apart. A plus sign joins genes that one reagent is predicted to hit.

Assay: 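Genes required for cells to halt at G2/M after double-strand DNA breaks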 (primary screen)
System: Drosophila S2R+ cells
Reagent: long dsRNA against Drosophila genes, about 0.25 µg dsRNA per well
Timing: 4 days of dsRNA, then 4 hours of drug before read-out
Conditions: doxorubicin 0.5 µM for 4 hours to cause double-strand breaks, in cells also given a low, harmless dose of dsRNA against nbs to sensitise the assay
Read-out: 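Per-well count of mitotic cells stained for phospho-histone H3 after doxorubicin exposure, used as mitotic index; counts are raw and not normalised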
Direction: mitotic cells: higher = more cells in mitosis, weaker G2 arrest
Rule for the call: 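Genes are called active only when high mitotic counts were reproduced with independent dsRNAs and mitosis was checked for delay without damage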
Meaning of the calls: active = confirmed in follow-up tests; inactive = not confirmed

With Sgs5 (GeneID 42114), what was measured?
mitotic cells, replicate 1: 11; Call: inactive

With CG42585 + CG31835, what was measured?
mitotic cells, replicate 1: 5; Call: inactive

Which result is listed for Cpr76Bc (GeneID 40122) #1?
mitotic cells, replicate 1: 9; Call: inactive

For Cpr76Bc (GeneID 40122) #2, what does the deposit list?
mitotic cells, replicate 1: 11; Call: inactive

Which result is listed for CG14618 (GeneID 33134)?
mitotic cells, replicate 1: 8; Call: inactive

With CG11841 (GeneID 43430) #1, how do the results read?
mitotic cells, replicate 1: 3; Call: inactive

With CG11841 (GeneID 43430) #2, how do the results read?
mitotic cells, replicate 1: 6; Call: inactive

With CG2909 (GeneID 31958), how do the results read?
mitotic cells, replicate 1: 7; Call: inactive

For Jon99Fi (GeneID 43622), what does the deposit list?
mitotic cells, replicate 1: 3; Call: inactive

How did the screen score CG7794 (GeneID 42159)?
mitotic cells, replicate 1: 19; Call: inactive

How did the screen score rin (GeneID 47998)?
mitotic cells, replicate 1: 16; Call: inactive

What is on record for CG10418 (GeneID 39408)?
mitotic cells, replicate 1: 5; Call: inactive

Ordered by “mitotic cells, replicate 1” (ascending): some entries from above
CG11841 (GeneID 43430) #1 — mitotic cells, replicate 1 = 3; Call = inactive
CG11841 (GeneID 43430) #2 — mitotic cells, replicate 1 = 6; Call = inactive
CG2909 (GeneID 31958) — mitotic cells, replicate 1 = 7; Call = inactive
CG14618 (GeneID 33134) — mitotic cells, replicate 1 = 8; Call = inactive
Cpr76Bc (GeneID 40122) #2 — mitotic cells, replicate 1 = 11; Call = inactive

The list goes on:
What is on record for CG15784 (GeneID 31461) #1?
mitotic cells, replicate 1: 10; Call: inactive

What did the screen give for CG15784 (GeneID 31461) #2?
mitotic cells, replicate 1: 9; Call: inactive

Which result is listed for PGRP-SB2 (GeneID 39869)?
Call: inactive

How did the screen score CG10725 (GeneID 39510)?
mitotic cells, replicate 1: 3; Call: inactive

With l(2)SH0834 (GeneID 34386), what does the deposit list?
mitotic cells, replicate 1: 3; Call: inactive

What is on record for Hus1-like (GeneID 40598)?
mitotic cells, replicate 1: 2; Call: inactive

What did the screen give for CG18622 (GeneID 42044)?
mitotic cells, replicate 1: 3; Call: inactive

What did the screen give for RpS6 (GeneID 31700) #1?
mitotic cells, replicate 1: 8; Call: inactive

With RpS6 (GeneID 31700) #2, what was measured?
mitotic cells, replicate 1: 8; Call: inactive

Which result is listed for Twdlalpha (GeneID 326223) #1?
mitotic cells, replicate 1: 11; Call: inactive

Which result is listed for Twdlalpha (GeneID 326223) #2?
mitotic cells, replicate 1: 4; Call: inactive

For yps (GeneID 39377), how do the results read?
mitotic cells, replicate 1: 18; Call: inactive

How did the screen score CG4627 (GeneID 36457)?
mitotic cells, replicate 1: 6; Call: inactive

Which result is listed for CG12898 (GeneID 36096)?
mitotic cells, replicate 1: 12; Call: inactive

What did the screen give for CG6149 (GeneID 39277)?
mitotic cells, replicate 1: 6; Call: inactive

What is on record for CG30379 (GeneID 246578)?
mitotic cells, replicate 1: 4; Call: inactive

With NtR (GeneID 43935) #1, what was measured?
mitotic cells, replicate 1: 9; Call: inactive

With NtR (GeneID 43935) #2, what does the deposit list?
mitotic cells, replicate 1: 5; Call: inactive

With ebd2 (GeneID 40363) #1, how do the results read?
mitotic cells, replicate 1: 5; Call: inactive

With ebd2 (GeneID 40363) #2, how do the results read?
mitotic cells, replicate 1: 6; Call: inactive

For Jon66Cii (GeneID 38953) #1, how do the results read?
mitotic cells, replicate 1: 5; Call: inactive

For Jon66Cii (GeneID 38953) #2, what was measured?
mitotic cells, replicate 1: 12; Call: inactive
